{"source": "PubChem BioAssay AID504808 (Drosophila RNAi Screening Center, 2011)", "purpose": "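Genes whose loss lifts activity of an E2F-responsive reporter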 (primary screen)", "cell system": "Drosophila S2 cells", "reagent": "long dsRNA against Drosophila genes", "measured": "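Firefly luciferase driven by E2F sites, normalised to Renilla luciferase on the same minimal promoter, measured by plate reader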", "direction": "E2F firefly: higher = more E2F reporter activity; Renilla normaliser: higher = more normaliser reporter signal", "active means": "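Called active if the normalised E2F reporter went up by over 50%; the cutoff is arbitrary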", "note": "The deposit covers about 21,000 reagents; this is a random part of those that have a named target and a result. In the full data, 18 (0.084%) are marked active. 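Raw counts without plate normalisation, one of two replicates; the ratio scores behind the calls were not deposited.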 The record does not give: the amount of reagent, the time to read-out."}
{"gene":"osp","PubChem SID":"SID104181201","E2F firefly, rep 1":1.35e5,"Renilla normaliser, rep 1":5157,"outcome":"inactive"}
{"gene":"osp","PubChem SID":"SID104183377","E2F firefly, rep 1":68708,"Renilla normaliser, rep 1":3496,"outcome":"inactive"}
{"gene":"CG13124","PubChem SID":"SID104182012","E2F firefly, rep 1":78595,"Renilla normaliser, rep 1":3558,"outcome":"inactive"}
{"gene":"Cp7Fc","PubChem SID":"SID104197827","E2F firefly, rep 1":1.08e5,"Renilla normaliser, rep 1":5914,"outcome":"inactive"}
{"gene":"CG15657","PubChem SID":"SID104184040","E2F firefly, rep 1":98864,"Renilla normaliser, rep 1":3917,"outcome":"inactive"}
{"gene":"firl","PubChem SID":"SID104182220","E2F firefly, rep 1":1.00e5,"Renilla normaliser, rep 1":4111,"outcome":"inactive"}
{"gene":"Cpr49Ad","PubChem SID":"SID104187076","E2F firefly, rep 1":92115,"Renilla normaliser, rep 1":4011,"outcome":"inactive"}
{"gene":"CG31038","PubChem SID":"SID104194843","E2F firefly, rep 1":1702,"Renilla normaliser, rep 1":896,"outcome":"inactive"}
{"gene":"CG31038","PubChem SID":"SID104196118","E2F firefly, rep 1":1.18e5,"Renilla normaliser, rep 1":6506,"outcome":"inactive"}
{"gene":"CG31038","PubChem SID":"SID104196119","E2F firefly, rep 1":1.27e5,"Renilla normaliser, rep 1":7016,"outcome":"inactive"}
{"gene":"krz","PubChem SID":"SID104196771","E2F firefly, rep 1":1.31e5,"Renilla normaliser, rep 1":5996,"outcome":"inactive"}
{"gene":"CG18853","PubChem SID":"SID104186587","E2F firefly, rep 1":1.52e5,"Renilla normaliser, rep 1":4595,"outcome":"inactive"}
{"gene":"CG31077","PubChem SID":"SID104193597","E2F firefly, rep 1":93594,"Renilla normaliser, rep 1":3236,"outcome":"inactive"}
{"gene":"CG10713","PubChem SID":"SID104189578","E2F firefly, rep 1":1.43e5,"Renilla normaliser, rep 1":6760,"outcome":"inactive"}
{"gene":"CG14835","PubChem SID":"SID104189997","E2F firefly, rep 1":1.07e5,"Renilla normaliser, rep 1":4132,"outcome":"inactive"}
{"gene":"wisp","PubChem SID":"SID104199495","E2F firefly, rep 1":7898,"Renilla normaliser, rep 1":616,"outcome":"inactive"}
{"gene":"CG13711","PubChem SID":"SID104188112","E2F firefly, rep 1":85623,"Renilla normaliser, rep 1":4043,"outcome":"inactive"}
{"gene":"CG31041","PubChem SID":"SID104193743","E2F firefly, rep 1":87773,"Renilla normaliser, rep 1":2617,"outcome":"inactive"}
{"gene":"viaf","PubChem SID":"SID104190118","E2F firefly, rep 1":74910,"Renilla normaliser, rep 1":3477,"outcome":"inactive"}
